Data: the supplement of paper PMC10849652
The other results are listed elsewhere or left out.

Chains of the proteins cited; added tags and fusions are not shown. Lines headed by an entry give the natural chain unless they say otherwise; changes in a name come on top.
UniProt O95563: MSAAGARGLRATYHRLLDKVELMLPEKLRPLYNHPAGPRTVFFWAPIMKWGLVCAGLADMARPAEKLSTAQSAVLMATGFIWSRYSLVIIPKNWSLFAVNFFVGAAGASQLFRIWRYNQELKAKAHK
UniProt Q9UQ53: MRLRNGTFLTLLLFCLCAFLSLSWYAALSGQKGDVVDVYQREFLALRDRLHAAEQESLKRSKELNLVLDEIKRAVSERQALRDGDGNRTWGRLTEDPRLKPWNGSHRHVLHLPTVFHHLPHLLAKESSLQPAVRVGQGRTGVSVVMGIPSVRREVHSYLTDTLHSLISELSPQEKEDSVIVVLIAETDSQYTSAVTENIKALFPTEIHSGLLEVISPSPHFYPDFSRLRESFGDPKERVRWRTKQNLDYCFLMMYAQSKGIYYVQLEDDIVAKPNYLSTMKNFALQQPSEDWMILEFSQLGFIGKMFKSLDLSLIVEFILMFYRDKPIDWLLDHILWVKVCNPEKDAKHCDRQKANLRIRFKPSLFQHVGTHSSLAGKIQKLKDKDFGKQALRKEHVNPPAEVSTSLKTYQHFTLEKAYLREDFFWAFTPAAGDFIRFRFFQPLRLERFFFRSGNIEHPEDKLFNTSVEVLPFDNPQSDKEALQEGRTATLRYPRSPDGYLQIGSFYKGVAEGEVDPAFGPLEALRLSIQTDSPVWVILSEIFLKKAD
UniProt Q96BX8: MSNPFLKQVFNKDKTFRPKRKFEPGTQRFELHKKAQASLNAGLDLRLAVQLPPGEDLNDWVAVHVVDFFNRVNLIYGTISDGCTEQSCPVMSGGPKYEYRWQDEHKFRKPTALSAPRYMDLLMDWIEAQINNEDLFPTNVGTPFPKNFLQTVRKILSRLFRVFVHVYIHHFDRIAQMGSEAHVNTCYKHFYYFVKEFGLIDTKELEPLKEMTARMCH
UniProt Q9NYP9: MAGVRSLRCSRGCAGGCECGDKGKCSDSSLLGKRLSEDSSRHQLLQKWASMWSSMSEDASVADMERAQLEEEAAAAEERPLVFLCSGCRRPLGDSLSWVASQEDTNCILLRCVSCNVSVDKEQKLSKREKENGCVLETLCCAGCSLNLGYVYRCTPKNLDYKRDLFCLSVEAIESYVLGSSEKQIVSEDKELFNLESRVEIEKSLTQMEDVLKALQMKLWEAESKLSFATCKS
UniProt Q8NHP6: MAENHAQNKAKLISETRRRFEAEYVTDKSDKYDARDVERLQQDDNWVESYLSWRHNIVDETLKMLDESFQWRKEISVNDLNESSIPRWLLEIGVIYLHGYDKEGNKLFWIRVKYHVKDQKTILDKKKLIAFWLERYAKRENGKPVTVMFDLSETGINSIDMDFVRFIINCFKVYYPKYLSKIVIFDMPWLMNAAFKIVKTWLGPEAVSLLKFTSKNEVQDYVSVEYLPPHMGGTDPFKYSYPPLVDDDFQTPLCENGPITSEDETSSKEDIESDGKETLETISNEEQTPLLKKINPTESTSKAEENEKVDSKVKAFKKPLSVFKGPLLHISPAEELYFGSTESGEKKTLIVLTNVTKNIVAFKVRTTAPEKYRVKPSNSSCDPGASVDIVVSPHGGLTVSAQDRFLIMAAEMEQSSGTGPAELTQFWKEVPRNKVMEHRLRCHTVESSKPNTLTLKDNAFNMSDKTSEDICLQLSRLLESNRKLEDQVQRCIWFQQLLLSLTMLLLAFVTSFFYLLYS
UniProt Q9NV56, whole entry, looked up: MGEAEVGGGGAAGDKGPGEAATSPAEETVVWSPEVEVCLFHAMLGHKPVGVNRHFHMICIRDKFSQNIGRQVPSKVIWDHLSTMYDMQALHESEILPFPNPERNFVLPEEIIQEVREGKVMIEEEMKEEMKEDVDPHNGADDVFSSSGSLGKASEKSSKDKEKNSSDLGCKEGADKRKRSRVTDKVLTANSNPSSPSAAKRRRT
UniProt Q9UHC7: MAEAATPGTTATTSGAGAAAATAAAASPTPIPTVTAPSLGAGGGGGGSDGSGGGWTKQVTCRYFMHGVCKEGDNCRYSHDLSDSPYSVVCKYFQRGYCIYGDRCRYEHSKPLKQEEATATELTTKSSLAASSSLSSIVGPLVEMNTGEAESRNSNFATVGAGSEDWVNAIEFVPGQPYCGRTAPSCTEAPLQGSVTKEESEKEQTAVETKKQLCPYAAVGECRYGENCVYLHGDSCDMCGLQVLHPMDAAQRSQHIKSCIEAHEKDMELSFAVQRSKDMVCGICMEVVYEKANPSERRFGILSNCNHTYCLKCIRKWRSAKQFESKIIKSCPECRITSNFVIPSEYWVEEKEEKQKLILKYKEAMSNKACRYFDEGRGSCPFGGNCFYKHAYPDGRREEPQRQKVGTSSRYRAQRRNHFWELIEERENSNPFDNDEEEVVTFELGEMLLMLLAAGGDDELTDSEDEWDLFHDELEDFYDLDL
UniProt Q7L1V2: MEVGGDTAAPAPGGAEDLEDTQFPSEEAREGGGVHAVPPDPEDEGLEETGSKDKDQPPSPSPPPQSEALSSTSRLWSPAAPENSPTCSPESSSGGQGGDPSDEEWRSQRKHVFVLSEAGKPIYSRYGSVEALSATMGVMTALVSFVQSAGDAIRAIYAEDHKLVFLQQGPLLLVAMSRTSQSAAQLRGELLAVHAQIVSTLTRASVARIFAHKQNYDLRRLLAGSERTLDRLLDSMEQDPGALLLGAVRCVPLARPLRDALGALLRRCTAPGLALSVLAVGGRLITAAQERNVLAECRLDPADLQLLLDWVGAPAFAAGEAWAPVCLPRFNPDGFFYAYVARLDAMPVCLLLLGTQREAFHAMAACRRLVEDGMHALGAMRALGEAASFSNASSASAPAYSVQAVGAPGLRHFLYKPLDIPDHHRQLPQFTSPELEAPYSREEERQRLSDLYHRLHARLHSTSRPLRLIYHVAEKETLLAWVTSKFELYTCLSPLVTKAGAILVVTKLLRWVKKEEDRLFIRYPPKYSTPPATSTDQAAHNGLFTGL
UniProt Q00013: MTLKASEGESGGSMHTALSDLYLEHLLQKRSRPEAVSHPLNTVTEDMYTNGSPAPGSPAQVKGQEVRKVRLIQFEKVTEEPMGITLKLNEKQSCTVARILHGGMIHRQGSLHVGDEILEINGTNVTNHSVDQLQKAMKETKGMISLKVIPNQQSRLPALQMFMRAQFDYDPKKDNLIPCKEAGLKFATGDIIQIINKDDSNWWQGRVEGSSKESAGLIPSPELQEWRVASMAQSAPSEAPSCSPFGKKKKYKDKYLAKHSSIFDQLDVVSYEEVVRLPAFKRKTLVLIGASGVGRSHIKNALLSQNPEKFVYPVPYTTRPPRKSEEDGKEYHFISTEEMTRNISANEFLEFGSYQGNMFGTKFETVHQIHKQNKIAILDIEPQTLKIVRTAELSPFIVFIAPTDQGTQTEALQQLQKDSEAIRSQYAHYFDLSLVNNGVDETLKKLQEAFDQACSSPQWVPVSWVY
UniProt Q8IY33: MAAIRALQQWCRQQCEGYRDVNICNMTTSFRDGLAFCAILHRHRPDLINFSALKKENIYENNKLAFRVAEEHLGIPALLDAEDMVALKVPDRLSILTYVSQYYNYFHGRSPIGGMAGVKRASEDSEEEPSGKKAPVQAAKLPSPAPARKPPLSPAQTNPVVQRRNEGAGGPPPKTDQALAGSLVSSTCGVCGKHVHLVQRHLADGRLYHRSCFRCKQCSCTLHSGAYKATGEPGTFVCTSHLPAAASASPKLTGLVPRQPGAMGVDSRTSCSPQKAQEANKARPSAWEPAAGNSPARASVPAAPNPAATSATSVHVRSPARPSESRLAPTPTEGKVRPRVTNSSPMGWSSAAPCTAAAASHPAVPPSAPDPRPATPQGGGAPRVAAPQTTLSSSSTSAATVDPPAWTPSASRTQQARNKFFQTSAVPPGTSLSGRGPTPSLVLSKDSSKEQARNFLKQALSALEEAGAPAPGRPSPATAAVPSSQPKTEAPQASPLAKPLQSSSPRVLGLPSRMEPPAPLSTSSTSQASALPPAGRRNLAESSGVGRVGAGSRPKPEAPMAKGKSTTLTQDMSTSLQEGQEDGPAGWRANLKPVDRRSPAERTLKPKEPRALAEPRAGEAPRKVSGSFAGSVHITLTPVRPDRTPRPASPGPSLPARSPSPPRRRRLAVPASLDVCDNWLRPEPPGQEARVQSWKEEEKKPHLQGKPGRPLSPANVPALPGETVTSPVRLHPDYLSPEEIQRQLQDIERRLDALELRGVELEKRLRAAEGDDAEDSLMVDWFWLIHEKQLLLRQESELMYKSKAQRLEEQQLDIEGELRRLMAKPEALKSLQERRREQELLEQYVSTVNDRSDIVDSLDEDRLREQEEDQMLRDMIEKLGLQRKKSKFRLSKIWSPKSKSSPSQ
UniProt Q13015: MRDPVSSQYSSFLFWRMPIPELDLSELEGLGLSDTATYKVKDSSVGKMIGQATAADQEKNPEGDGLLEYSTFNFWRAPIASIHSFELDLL
UniProt O14880: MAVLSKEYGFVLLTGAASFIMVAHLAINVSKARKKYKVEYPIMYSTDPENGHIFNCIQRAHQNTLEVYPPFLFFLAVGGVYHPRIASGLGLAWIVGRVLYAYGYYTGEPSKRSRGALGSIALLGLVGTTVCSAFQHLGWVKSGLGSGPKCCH
UniProt Q9BWT6: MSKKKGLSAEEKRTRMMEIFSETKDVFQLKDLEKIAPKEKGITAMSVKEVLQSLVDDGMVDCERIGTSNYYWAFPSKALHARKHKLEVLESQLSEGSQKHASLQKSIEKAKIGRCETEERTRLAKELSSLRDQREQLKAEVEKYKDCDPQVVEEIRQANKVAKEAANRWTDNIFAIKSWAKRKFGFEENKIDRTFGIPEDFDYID
UniProt P10620: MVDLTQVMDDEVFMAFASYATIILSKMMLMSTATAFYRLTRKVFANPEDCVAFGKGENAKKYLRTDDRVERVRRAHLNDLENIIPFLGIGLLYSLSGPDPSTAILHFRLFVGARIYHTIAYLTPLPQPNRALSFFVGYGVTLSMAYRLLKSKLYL
UniProt Q9BQP7: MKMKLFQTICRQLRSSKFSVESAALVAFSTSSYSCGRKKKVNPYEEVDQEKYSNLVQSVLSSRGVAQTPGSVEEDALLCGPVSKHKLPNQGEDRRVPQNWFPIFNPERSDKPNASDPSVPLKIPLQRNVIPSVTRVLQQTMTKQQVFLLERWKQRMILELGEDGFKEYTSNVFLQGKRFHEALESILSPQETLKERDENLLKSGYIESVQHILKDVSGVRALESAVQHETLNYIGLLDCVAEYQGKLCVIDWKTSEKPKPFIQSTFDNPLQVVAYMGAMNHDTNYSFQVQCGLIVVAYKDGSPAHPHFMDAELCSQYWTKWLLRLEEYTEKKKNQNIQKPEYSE
UniProt Q86TA1: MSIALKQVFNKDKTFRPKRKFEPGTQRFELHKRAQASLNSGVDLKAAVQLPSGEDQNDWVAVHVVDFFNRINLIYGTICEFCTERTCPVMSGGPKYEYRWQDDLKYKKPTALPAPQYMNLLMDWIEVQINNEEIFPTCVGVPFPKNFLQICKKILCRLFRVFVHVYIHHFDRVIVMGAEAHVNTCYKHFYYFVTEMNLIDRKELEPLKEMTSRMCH
UniProt O75352: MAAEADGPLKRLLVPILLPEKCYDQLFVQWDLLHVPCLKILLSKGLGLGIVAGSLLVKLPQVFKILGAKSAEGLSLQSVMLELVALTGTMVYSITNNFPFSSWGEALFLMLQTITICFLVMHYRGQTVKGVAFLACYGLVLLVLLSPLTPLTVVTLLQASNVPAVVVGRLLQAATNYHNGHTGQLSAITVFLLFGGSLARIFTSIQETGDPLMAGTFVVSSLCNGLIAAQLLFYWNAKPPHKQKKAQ
UniProt Q9NQG6: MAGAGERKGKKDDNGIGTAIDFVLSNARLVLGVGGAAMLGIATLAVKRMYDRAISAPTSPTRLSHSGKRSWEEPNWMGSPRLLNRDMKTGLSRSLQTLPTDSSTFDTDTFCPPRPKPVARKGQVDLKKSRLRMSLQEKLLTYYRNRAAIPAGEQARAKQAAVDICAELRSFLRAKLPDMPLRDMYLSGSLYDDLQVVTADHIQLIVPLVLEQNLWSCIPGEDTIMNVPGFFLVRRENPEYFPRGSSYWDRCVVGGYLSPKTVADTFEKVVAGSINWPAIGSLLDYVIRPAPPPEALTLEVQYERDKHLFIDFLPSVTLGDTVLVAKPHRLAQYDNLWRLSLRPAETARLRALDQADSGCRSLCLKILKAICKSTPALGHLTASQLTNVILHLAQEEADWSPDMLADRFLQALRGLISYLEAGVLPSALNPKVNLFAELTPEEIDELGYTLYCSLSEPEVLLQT
UniProt Q9Y3A3: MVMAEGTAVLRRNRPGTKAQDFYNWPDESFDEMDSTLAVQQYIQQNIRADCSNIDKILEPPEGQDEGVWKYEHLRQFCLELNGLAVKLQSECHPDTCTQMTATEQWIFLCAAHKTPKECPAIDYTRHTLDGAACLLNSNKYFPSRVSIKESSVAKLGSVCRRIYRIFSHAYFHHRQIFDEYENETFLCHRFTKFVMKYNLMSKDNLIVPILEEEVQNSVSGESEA

How the values were obtained:
Test in all cases: log2 fold change, soluble protein after heating vs DMSO (PISA); higher = thermal stabilisation; K562 lysate, 10 uM; active = over 0.2 and 3.5 SD of the protein, either way, in both replicates (recomputed)
[1] = compound: C=CC(=O)N1CCC[C@@H](n2nc(-c3ccc(Oc4ccccc4)cc3)c3c(N)ncnc32)C1 [ibrutinib]
How it was run: (§1)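 Thermal stability, expressed as log-two fold change relative to solvent controls, is given from duplicates. Crude K562 extract in PBS pH 7.4 with 1 mM MgCl2, at 1 mg/mL protein, was treated with 10 μM compound for 30 min and heated in aliquots for 3 min across 48°C-58°C. After pooling, adjustment to 0.5% NP-40 at 4°C and centrifugation at 21,000xg for 90 min, supernatant protein was measured by TMTpro 16plex LC-MS/MS with channel sums equalised.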

[2] = compound: CC(=O)c1cnc2ccc(-c3cc(Cl)c(O)c(Cl)c3)nc2c1N[C@H]1CC[C@H](CN(C)C)CC1
How it was run: as §1

[3] = compound: CC(C)(C)Cn1c(N)nc2ccc(-c3[nH]c(C(C)(C)C)nc3-c3ccc(F)cc3)nc21 [ralimetinib]
How it was run: as §1

[4] = compound: CC(C)(O)CC(=O)NCCn1ccc2ncnc(Nc3ccc(Oc4cccc(C(F)(F)F)c4)c(Cl)c3)c21
How it was run: as §1

[5] = compound: CC(C)C1=C2N=C(C=C(N2N=C1)NCC3=CC=CC=C3)NCCCCCCN
How it was run: as §1

[6] = compound: CC1=C(C(CC(=O)N1)C2=CC=C(C=C2)C(F)(F)F)C(=O)NC3=C(C=C4C(=C3)C=NN4)F
How it was run: as §1

[7] = compound: CC1=C(C2=C(C=C1)C(=O)C3=CC=CC=C3N2CCCN)C
How it was run: as §1

[8] = compound: CC1=C(C=C(C=C1)NC(=O)C2=CC(=CC=C2)C(C)(C)C#N)NC3=CC4=C(C=C3)N=CN(C4=O)C
How it was run: as §1

[9] = compound: CC1=C(C=C(C=C1)NC(=O)C2=CC(=CC=C2)N(C)C)NC(=O)C3=CC=C(C=C3)O
How it was run: as §1

[10] = compound: CC1=CC=C(C=C1)SC2=C3C=C(SC3=CN=C2)C(=O)N
How it was run: as §1

Measured: log2 fold change

MPC2 (UniProt O95563)
inactive: [1] -0.021 | [2] 0.012 | [3] 0.012 | [4] -0.042 | [5] 0.02 | [6] -0.027 | [7] -0.057 | [8] 0.013 | [9] -0.026 | [10] -0.005

MGAT4B isoform 3 (UniProt Q9UQ53)
inactive: [1] 0.015 | [2] -0.027 | [3] 0.008 | [4] -0.011 | [5] 0.009 | [6] -0.099 | [7] -0.034 | [8] -0.034 | [9] 0.026 | [10] -0.023

MOB3A (UniProt Q96BX8)
inactive: [1] 0.044 | [2] 0.031 | [3] 0.018 | [4] -0.01 | [5] 0.006 | [6] 0.045 | [7] 0.018 | [8] -0.026 | [9] 0.001 | [10] 0.006

MIS18A (UniProt Q9NYP9)
inactive: [1] 0.018 | [2] 0.002 | [3] 0.003 | [4] 0.019 | [5] -0.012 | [6] 0.003 | [7] 0 | [8] 0.008 | [9] 0.02 | [10] -0.031

MOSPD2 (UniProt Q8NHP6)
inactive: [1] -0.023 | [2] 0.019 | [3] 0.023 | [4] 0.067 | [5] 0.028 | [6] -0.049 | [7] 0.009 | [8] -0.037 | [9] -0.012 | [10] 0.017

MRGBP (UniProt Q9NV56)
inactive: [1] 0.002 | [2] 0.023 | [3] -0.037 | [4] -0.005 | [5] 0.04 | [6] 0.194 | [7] -0.079 | [8] -0.028 | [9] 0.007 | [10] -0.056

MKRN1 (UniProt Q9UHC7)
inactive: [1] 0.049 | [2] -0.018 | [3] 0.045 | [4] -0.082 | [5] -0.018 | [6] -0.093 | [7] -0.021 | [8] 0.03 | [9] -0.012 | [10] 0.034

2 neighbouring records out of the list so far, quoted:
MOB3A (UniProt Q96BX8)
inactive: [1] 0.044 | [2] 0.031 | [3] 0.018 | [4] -0.01 | [5] 0.006 | [6] 0.045 | [7] 0.018 | [8] -0.026 | [9] 0.001 | [10] 0.006

MIS18A (UniProt Q9NYP9)
inactive: [1] 0.018 | [2] 0.002 | [3] 0.003 | [4] 0.019 | [5] -0.012 | [6] 0.003 | [7] 0 | [8] 0.008 | [9] 0.02 | [10] -0.031

Following part.

MON1B (UniProt Q7L1V2)
inactive: [1] 0.018 | [2] 0.013 | [3] 0.045 | [4] -0.029 | [5] -0.024 | [6] 0.066 | [7] -0.016 | [8] -0.056 | [9] -0.012 | [10] -0.003

MPP1 (UniProt Q00013)
inactive: [1] 0.035 | [2] 0.011 | [3] -0.01 | [4] -0.002 | [5] 0.02 | [6] -0.019 | [7] 0.018 | [8] 0.022 | [9] 0.012 | [10] -0.004

MRPL15 (UniProt Q9P015)
inactive: [1] 0.003 | [2] -0.078 | [3] -0.024 | [4] -0.056 | [5] -0.01 | [6] -0.007 | [7] -0.133 | [8] 0.032 | [9] 0.009 | [10] -0.023

MLLT1 (UniProt Q03111)
inactive: [1] 0.032 | [2] -0.006 | [3] 0.032 | [4] -0.017 | [5] -0.028 | [6] -0.049 | [7] -0.023 | [8] 0.058 | [9] -0.01 | [10] -0.052

MRPL17 (UniProt Q9NRX2)
inactive: [1] 0.032 | [2] 0.014 | [3] 0.025 | [4] -0.022 | [5] -0.008 | [6] 0 | [7] 0.043 | [8] -0.079 | [9] 0.04 | [10] -0.074

MICALL1 (UniProt Q8N3F8)
inactive: [1] 0.011 | [2] -0.02 | [3] 0.012 | [4] -0.053 | [5] 0.009 | [6] -0.012 | [7] -0.011 | [8] 0.024 | [9] 0.038 | [10] -0.01

MOGS (UniProt Q13724)
inactive: [1] 0.021 | [2] 0.018 | [3] 0.014 | [4] 0.023 | [5] 0.049 | [6] 0.046 | [7] 0.012 | [8] -0.014 | [9] 0.023 | [10] 0.034

MICALL2 (UniProt Q8IY33)
inactive: [1] 0.023 | [2] 0.007 | [3] -0.022 | [4] -0.018 | [5] -0.051 | [6] -0.019 | [7] -0.004 | [8] 0.012 | [9] 0.005 | [10] -0.008

MRPL21 (UniProt Q7Z2W9)
inactive: [1] 0.023 | [2] 0.002 | [3] 0.015 | [4] -0.044 | [5] 0.026 | [6] -0.035 | [7] -0.028 | [8] 0.015 | [9] 0.01 | [10] 0.029

MLLT11 (UniProt Q13015)
inactive: [1] -0.057 | [2] 0.077 | [3] 0.032 | [4] -0.116 | [5] 0.164 | [6] 0.174 | [7] -0.037 | [8] 0.326 | [9] -0.008 | [10] 0.055

MGST3 (UniProt O14880)
inactive: [1] 0.06 | [2] -0.004 | [3] 0.041 | [4] -0.046 | [5] -0.009 | [6] -0.004 | [7] -0.03 | [8] 0.042 | [9] 0.006 | [10] -0.025

MND1 (UniProt Q9BWT6)
inactive: [1] 0.024 | [2] -0.005 | [3] 0.005 | [4] -0.006 | [5] 0 | [6] 0 | [7] 0.01 | [8] -0.022 | [9] 0.002 | [10] -0.006

MGST1 (UniProt P10620)
inactive: [1] 0.052 | [2] 0.039 | [3] 0.054 | [4] -0.047 | [5] -0.002 | [6] 0.002 | [7] -0.078 | [8] -0.01 | [9] 0.014 | [10] 0.05

MLEC (UniProt Q14165)
inactive: [1] 0.026 | [2] -0.009 | [3] 0.007 | [4] -0.001 | [5] 0.005 | [6] -0.01 | [7] 0.015 | [8] -0.009 | [9] -0.052 | [10] 0.016

MGME1 (UniProt Q9BQP7)
inactive: [1] -0.025 | [2] -0.003 | [3] 0.019 | [4] -0.004 | [5] -0.008 | [6] -0.008 | [7] 0.016 | [8] 0.008 | [9] -0.007 | [10] -0.028

MRPL10 isoform 2 (UniProt Q7Z7H8)
inactive: [1] -0.062 | [2] -0.013 | [3] 0.047 | [4] -0.019 | [5] -0.04 | [6] -0.029 | [7] -0.005 | [8] 0.025 | [9] 0.053 | [10] 0.042

MOB3B (UniProt Q86TA1)
inactive: [1] 0 | [2] 0.023 | [3] -0.011 | [4] -0.03 | [5] 0.023 | [6] -0.107 | [7] -0.038 | [8] 0.009 | [9] -0.001 | [10] -0.024

MRPL14 (UniProt Q6P1L8)
inactive: [1] -0.001 | [2] 0.05 | [3] -0.027 | [4] -0.021 | [5] -0.038 | [6] 0.037 | [7] -0.057 | [8] -0.018 | [9] -0.004 | [10] 0.043

MPDU1 (UniProt O75352)
inactive: [1] -0.099 | [2] -0.002 | [3] 0.028 | [4] -0.034 | [5] -0.03 | [6] 0.086 | [7] -0.055 | [8] 0.038 | [9] -0.019 | [10] 0.048

MORC3 (UniProt Q14149)
inactive: [1] 0.004 | [2] -0.023 | [3] 0.021 | [4] 0.013 | [5] -0.007 | [6] 0.007 | [7] -0.032 | [8] -0.021 | [9] 0.021 | [10] -0.027

MIEF1 (UniProt Q9NQG6)
inactive: [1] 0.068 | [2] 0.019 | [3] -0.002 | [4] -0.055 | [5] 0.036 | [6] 0.012 | [7] -0.012 | [8] -0.006 | [9] 0.052 | [10] 0.009

MOB4 (UniProt Q9Y3A3)
inactive: [1] -0.001 | [2] -0.014 | [3] 0.036 | [4] -0.03 | [5] -0.012 | [6] -0.013 | [7] 0.019 | [8] 0.015 | [9] -0.051 | [10] -0.033

MPZL1 (UniProt O95297)
inactive: [1] 0.01 | [2] -0.008 | [3] -0.01 | [4] 0.022 | [5] -0.035 | [6] -0.006 | [7] 0.003 | [8] 0.02 | [9] -0.035 | [10] -0.036
